Experimental data: patent publication US20250136556A1, “NOVEL MODULATORS OF THE ARYL HYDROCARBON RECEPTOR AND METHODS OF USE THEREOF” (Allianthera (Suzhou) Biopharmaceutical Co., Ltd., priority 2021, published 2025)
pEC50, pIC50: −log10 of the molar value. Structures were worked out from names or drawings and are uncertain.

Amino acid sequences for entries named in this document (tags omitted). Residues count along the entry.
UniProt P35869, 11-848 limits assumed: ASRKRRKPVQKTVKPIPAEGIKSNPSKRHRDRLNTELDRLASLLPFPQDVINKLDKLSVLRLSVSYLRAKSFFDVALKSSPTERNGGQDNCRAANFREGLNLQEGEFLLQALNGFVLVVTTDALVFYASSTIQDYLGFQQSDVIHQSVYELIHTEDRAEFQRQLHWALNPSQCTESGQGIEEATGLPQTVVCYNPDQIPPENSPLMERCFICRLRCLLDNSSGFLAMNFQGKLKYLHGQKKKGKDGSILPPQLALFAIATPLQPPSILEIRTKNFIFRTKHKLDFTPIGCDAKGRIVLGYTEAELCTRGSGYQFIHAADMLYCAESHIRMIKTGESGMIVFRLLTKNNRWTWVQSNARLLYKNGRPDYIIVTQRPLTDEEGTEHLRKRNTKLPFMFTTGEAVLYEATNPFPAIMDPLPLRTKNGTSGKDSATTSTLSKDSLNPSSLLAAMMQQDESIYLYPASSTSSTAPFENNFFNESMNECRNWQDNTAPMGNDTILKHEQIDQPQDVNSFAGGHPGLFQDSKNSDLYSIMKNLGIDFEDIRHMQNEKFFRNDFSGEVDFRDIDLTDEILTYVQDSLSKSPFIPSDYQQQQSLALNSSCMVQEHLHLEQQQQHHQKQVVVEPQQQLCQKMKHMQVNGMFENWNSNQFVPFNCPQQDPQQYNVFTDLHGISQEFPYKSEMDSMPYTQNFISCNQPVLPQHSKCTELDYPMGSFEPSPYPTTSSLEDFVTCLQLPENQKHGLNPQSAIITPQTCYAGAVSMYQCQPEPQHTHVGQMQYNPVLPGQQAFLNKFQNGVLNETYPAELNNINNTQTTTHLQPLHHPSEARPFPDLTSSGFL

Assays:
[1] = target: Human Aryl Hydrocarbon Receptor (AHR) (Homo sapiens, UniProt P35869); assay: AHR agonist reporter assay in human cell line (INDIGO luciferase reporter); assay type: cell-based; conditions: read-out: AHR abEC50; reporter cells, 24 hours incubation, second line of cell;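 further: firefly luciferase luminescence read on a plate reader, values normalized against positive and negative controls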
[2] = tested on: IL-6 gene expression in human primary M1 macrophage cells; assay: AHR-regulated IL-6 inhibition in human primary M1 macrophage (qPCR); assay type: cell-based; conditions: read-out: M1 assay IL6 -IC50, LPS/IFN-gamma/GM-CSF, 24 hours
Experimental: Human M1 macrophage was differentiated from PBMC. Briefly, at day 1, monocytes were isolated from human PBMC using EasySe Human Monocyte Enrichment Kit without CD16 Depletion (Stemcell, 19058). The isolated monocytes were seeded at 3×10^7 cells in 15 cm dish using 30 ml medium containing 50 ng/ml GM-CSF (R&D, 215-GM-050/CF). At day 5, 30 ml fresh medium containing 50 ng/ml GM-CSF was added. At day 8, 1.5×10^5 cells/well were re-seeded into 24 wells plate, and 500 ul medium containing 10 ng/ml LPS (Sigma, L7770), 20 ng/ml IFN-gamma (PeproTech, 300-02), 50 ng/ml GM-CSF and the test compounds was added. […] The IL-6 expression was inhibited with AHR agonists described in literature as the positive inhibition control, alternatively the un-stimulated cells were used as the negative inhibition control. […] The primers for human GAPDH (F: […]; R: […]) and human IL-6 (F: […]; R: […]) were used to analyze fold expression of IL-6 of GAPDH by quantitative PCR.

| Compound | pEC50 [1] | pIC50 [2] |
| --- | --- | --- |
| CC(C)c1c(O)cc(-c2ccc3cnc(N)cc3c2)cc1O | < 7.00 | – |
| Cc1ccnc2c(-c3cc(O)c(C(C)C)c(O)c3)ccnc12 | < 7.00 | – |
| CC(C)c1c(O)cc(-c2cc(F)c3cnccc3c2)cc1O | 8.89 | 8.51 |
| CC(C)c1c(O)cc(-c2ccc3cnccc3c2F)cc1O | 8.61 | 8.93 |
